Assay results as given in publication PMC10830421.
These are yes or no findings as the source states them, for the method shown. Binding seen in cells or lysates may run through a third protein. These calls come from enrichment with a bait or labelling near it, and not all partners need be listed. Where a sequence is shown, tags or fusion partners need not be part of it. Each block holds one binder with its values, some of them ahead of it.

Molecular target: T1, RTN4IP1-V5-TurboID (reticulon 4-interacting protein 1 fused to V5 and TurboID) (human) (UniProt Q8WWV3)
T1 sequence: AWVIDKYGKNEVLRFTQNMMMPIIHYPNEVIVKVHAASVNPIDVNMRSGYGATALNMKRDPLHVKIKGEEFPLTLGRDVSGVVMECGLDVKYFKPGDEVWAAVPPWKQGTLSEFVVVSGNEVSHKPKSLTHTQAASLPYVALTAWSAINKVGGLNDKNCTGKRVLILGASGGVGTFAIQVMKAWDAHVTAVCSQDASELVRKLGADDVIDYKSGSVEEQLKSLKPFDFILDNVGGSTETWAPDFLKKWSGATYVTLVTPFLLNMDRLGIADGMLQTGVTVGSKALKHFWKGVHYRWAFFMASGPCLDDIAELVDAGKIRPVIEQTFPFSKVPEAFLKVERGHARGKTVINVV
Test: proximity labelling; RTN4IP1-V5-TurboID stable cells, 5 ng/ml doxycycline 16 h, 50 uM biotin 30 min at 37 °C; biotinylated peptides enriched on streptavidin beads, LC-MS/MS; compared with MTS-TurboID (Matrix-V5-TurboID) control, P < 0.05, FC > 2

- binding: binds
B1: COQ3 (enzyme, UniProt Q9NZJ6 86-369)
chain: STSQTTVDSGEVKTFLALAHKWWDEQGVYAPLHSMNDLRVPFIRDNLLKTIPNHQPGKPLLGMKILDVGCGGGLLTEPLGRLGASVIGIDPVDENIKTAQCHKSFDPVLDKRIEYRVCSLEEIVEETAETFDAVVASEVVEHVIDLETFLQCCCQVLKPGGSLFITTINKTQLSYALGIVFSEQIASIVPKGTHTWEKFVSPETLESILESNGLSVQTVVGMLYNPFSGYWHWSENTSLNYAAYAVKSRVQEHPASAEFVLKGETEELQANACTNPAVHEKLKK

- binding: binds
B2: COQ5 (enzyme, UniProt Q5HYK3 43-327)
chain: LSQEKRAAETHFGFETVSEEEKGGKVYQVFESVAKKYDVMNDMMSLGIHRVWKDLLLWKMHPLPGTQLLDVAGGTGDIAFRFLNYVQSQHQRKQKRQLRAQQNLSWEEIAKEYQNEEDSLGGSRVVVCDINKEMLKVGKQKALAQGYRAGLAWVLGDAEELPFDDDKFDIYTIAFGIRNVTHIDQALQEAHRVLKPGGRFLCLEFSQVNNPLISRLYDLYSFQVIPVLGEVIAGDWKSYQYLVESIRRFPSQEEFKDMIEDAGFHKVTYESLTSGIVAIHSGFKL
